Tests used:
[1] = log D7.4 by shake-flask method, n-octanol/buffered aqueous solution; format: physicochemical; conditions: n-octanol/0.02 M HEPES pH 7.4, T = 298.0 K
Description: (§1) ^1H NMR spectra were recorded on a Bruker Avance III instrument (Ultrashiled Magnet) at 500.13 MHz at room temperature. DMSO-d6 was used as a solvent. Standard pulse programs were applied. ^1H chemical shifts were measured relative to the residual solvent peaks. The hydrolytic stability of complex 8 in 20 mM phosphate buffer at pH 7.4 (0.1 M (KCl) ionic strength) and in pure water, both containing 10% D2O, was followed by recording ^1H NMR spectra over 24 h. Complex concentration was 1.0 mM. Watergate water suppression program and 4,4-dimethyl-4-silapentane-1-sulfonic acid (DSS) internal standard were used. ATR-IR spectra were measured on a Bruker Vertex spectrometer. D7.4 values were determined by the traditional shake-flask method in n-octanol/buffered aqueous solution at pH 7.4 (N-(2-hydroxyethyl)piperazine-N′-ethanesulfonic acid (HEPES) buffer) and 298.0 ± 0.2 K, as described previously.[25] In the case of the complexes of L-Ala (2) and L-Val (3) the D7.4 values were determined in the presence of 0.1 M KCl as well. Two parallel experiments were performed for each sample. […] Circular dichroism (CD) and UV–vis spectra under physiological conditions (0.02 M phosphate buffer, pH 7.40 with 0.1 M KCl) were recorded on a Jasco J-815 spectrometer in an optical cell of 2 cm path length (l) in the wavelength range from 220 to 600 nm. […]

[2] = Hydrolytic stability by 1H NMR spectroscopy; format: physicochemical; conditions: aqueous medium 0.1 M KCl, buffered at pH 7.4, over 24 h, 1.0 mM
Description: as §1

In the case of `CCCC[N+](CCCC)(CCCC)CCCC.O=[N][Ru-2]1([Cl])([Cl])([Cl])[NH2+][C@@H](Cc2ccc(O)cc2)C(=O)[O]1` [complex 8, (nBu4N)[RuCl3(L-Tyr–H)(NO)]], the “log D7.4” value [1] is reported as “–1.16 ± 0.02” and the “hydrolytic stability: chemical shifts and shapes of all 1H NMR peaks” value [2] is reported as “remained unchanged”.
